Measurements reported in PubChem BioAssay AID652259 (Drosophila RNAi Screening Center, 2013)
In all, the deposit lists about 22,000 reagents; this is an unselected part of those that have a named target and a result. In the full data, 233 (1.1%) were called active. 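Light values are raw, unnormalised plate reads; the ratio scores behind the reporter calls were not deposited.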 A number with no mark means an inactive call. Reagents against one gene are numbered here. Names joined by + are all predicted targets of the reagent. No sequences are given here. Not given: the amount of reagent, the time to read-out, the dose of the treatment.

Assay: 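Identify new Wingless signalling regulators in fly cells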 (primary screen)
Cell system: Drosophila clone 8 imaginal disc epithelial cells
Knock-down reagent: long dsRNA against Drosophila genes
Treatment: pathway stimulated by co-transfected Wingless expression plasmid
Measured: 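Dual luciferase reads per well after Wingless plasmid stimulation: reporter firefly light and Renilla control light; activity is firefly divided by Renilla, a ratio not deposited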
Reading the numbers: firefly reporter light: higher = more Wg reporter light, before normalisation; Renilla control light: higher = more transfected or surviving cells
Rule for the call: 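a knock-down is a candidate when at least two out of four statistical tests show it departing from its plate mean; one test alone signals a weak candidate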
Calls: active = candidate regulator (raises or lowers reporter); inactive = not a candidate

| target gene | reagent | reporter change call, replicate 1 | firefly reporter light, replicate 1 | firefly reporter light, replicate 2 | Renilla control light, replicate 1 | Renilla control light, replicate 2 |
| --- | --- | --- | --- | --- | --- | --- |
| tld | 1 | – | 12480 | – | 9851 | – |
| Cad99C | 1 | – | 9043 | – | 2361 | – |
| Cad99C | 2 | – | 2153 | 8177 | 960 | 2675 |
| AlaRS-m | 1 | – | 4320 | – | 1984 | – |
| alpha-Man-IIa | 1 | – | 13888 | – | 4229 | – |
| ct | 1 | – | 14246 | – | 7520 | – |
| Nxf3 | 1 | – | 2.80e5 | 2.90e5 | 1.46e5 | 1.07e5 |
| Hrb27C | 1 | – | 15683 | – | 3512 | – |
| CG17199 | 1 | – | 13882 | – | 3980 | – |
| CG32087 | 1 | – | 8167 | – | 2624 | – |
| CG12868 | 1 | – | 7312 | – | 2752 | – |
| Clamp | 1 | – | 16688 | – | 5609 | – |
| Clamp | 2 | – | 9.20e5 | 8.46e5 | 3.44e5 | 2.31e5 |
| ImpL1 | 1 | – | 4874 | – | 1563 | – |
| Argl + CG9515 | 1 | – | 18065 | – | 5096 | – |
| Argl + CG9515 | 2 | – | 4592 | 8488 | 1127 | 4044 |
| CG4597 | 1 | – | 1335 | 6519 | 870 | 2919 |
| CG33557 | 1 | – | 17122 | – | 8758 | – |
| CG42326 | 1 | – | 2985 | 9613 | 1068 | 3483 |
| CG42326 | 2 | – | 2802 | 6518 | 865 | 2507 |
| pds5 | 1 | – | 5537 | – | 2320 | – |
| dbo | 1 | – | 8288 | – | 3216 | – |
| Acp53C14b | 1 | – | 6208 | – | 2115 | – |
| Fatp3 | 1 | – | 2246 | 5680 | 661 | 1827 |
| Hel89B | 1 | – | 4240 | 7325 | 1376 | 2707 |
| Hel89B | 2 | – | 8.67e5 | 9.29e5 | 1.56e5 | 1.50e5 |
| Proc-R | 1 | – | 15376 | – | 8566 | – |
| tpr | 1 | – | 12037 | – | 3712 | – |
| CG9917 | 1 | – | 3360 | 9171 | 1053 | 2473 |
| FANCI | 1 | – | 3264 | 6171 | 1063 | 2769 |
| ND-23 | 1 | – | 2183 | 5825 | 1159 | 956 |
| GstE12 | 1 | – | 2676 | 4493 | 616 | 1585 |
| Sos | 1 | Wg reporter activity raised (active) | 5248 | 11684 | 816 | 2485 |
| RIC-3 | 1 | – | 16237 | – | 4036 | – |
| RIC-3 | 2 | – | 4264 | 14217 | 1116 | 4587 |
| CG10734 | 1 | – | 6338 | – | 2284 | – |
| CG10165 | 1 | – | 10425 | – | 3622 | – |
| Rpn5 | 1 | – | 6912 | – | 1812 | – |
| rhi | 1 | – | 6128 | – | 2218 | – |
| cas | 1 | – | 17244 | – | 3829 | – |
| Edc3 | 1 | – | 5040 | – | 2501 | – |
| CG12909 | 1 | – | 2593 | 6441 | 609 | 2432 |
| Tim17a1 | 1 | – | 18424 | – | 5920 | – |
| ewg | 1 | – | 24650 | 6.47e5 | 15824 | 2.96e5 |
| CG31279 | 1 | – | 3654 | – | 1453 | – |
| CG13995 | 1 | – | 25505 | – | 11792 | – |
| CG13995 | 2 | – | 5160 | 7632 | 976 | 2785 |
| CG13995 | 3 | – | 6.60e5 | 8.52e5 | 2.75e5 | 3.62e5 |
| yki | 1 | – | 10301 | – | 3816 | – |
| CG6472 | 1 | – | 4855 | – | 1733 | – |
| lolal | 1 | – | 17938 | – | 5945 | – |
| SmydA-4 | 1 | – | 26593 | – | 12258 | – |
| SmydA-4 | 2 | – | 6.29e5 | 6.62e5 | 2.48e5 | 2.52e5 |
| btz | 1 | – | 2907 | 8530 | 770 | 1504 |
| CG14195 | 1 | – | 19078 | – | 10439 | – |
| CG1636 | 1 | Wg reporter activity lowered | 4340 | 7725 | 1365 | 3121 |
| CG30484 | 1 | – | 14153 | – | 9635 | – |
| lectin-46Cb | 1 | – | 3920 | 12272 | 1724 | 5117 |
| bsf | 1 | – | 10717 | – | 3347 | – |
| psidin | 1 | – | 18214 | – | 4753 | – |
| LysP | 1 | – | 3908 | – | 1706 | – |
| UbcE2H | 1 | – | 3303 | 7197 | 1140 | 1301 |
| CG32452 | 1 | – | 4372 | – | 2101 | – |
| CG32452 | 2 | – | 7.68e5 | 7.30e5 | 3.33e5 | 3.97e5 |
| Vps29 | 1 | – | 7760 | – | 3394 | – |
| Gli | 1 | – | 2972 | 4992 | 1011 | 2765 |
| IleRS | 1 | – | 6707 | – | 2825 | – |
| p115 | 1 | – | 14056 | – | 8615 | – |
| lama | 1 | – | 4503 | – | 1301 | – |
| CG16812 | 1 | – | 12244 | – | 1809 | – |
| fry | 1 | – | 4732 | – | 2277 | – |
| fry | 2 | – | 5426 | – | 2294 | – |
| fry | 3 | – | 5927 | – | 2384 | – |
| fry | 4 | – | 6858 | – | 1457 | – |
